Experimental data published in the supplement of paper PMC8728848.
The other results are listed elsewhere or left out.

What was measured:
Assay in all cases: glycan array binding signal (z-score within array); higher = stronger binding
Details in all cases: glycan notation: IUPAC condensed, linker removed
Gal(b1-4)Glc = target: Gal(b1-4)Glc
Procedure, shortened: (§1)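 Glycan array binding is given as a within-array Z-score, which can be read as non-binding when negative. The arrays, 3228 of them, came from the Consortium for Functional Glycomics database and were retained only where the protein sequence was available. Z-scores were averaged across arrays of the same protein sequence at different concentrations or buffers and across linkers.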

Gal(b1-4)Glc6S = target: Gal(b1-4)Glc6S
Procedure, shortened: as §1

Gal(b1-4)GlcNAc = target: Gal(b1-4)GlcNAc
Procedure, shortened: as §1

[1] = target: Gal(b1-4)GlcNAc(a1-6)Gal(b1-4)GlcNAc
Procedure, shortened: as §1

Gal(b1-4)GlcNAc(b1-2)Man = target: Gal(b1-4)GlcNAc(b1-2)Man
Procedure, shortened: as §1

[2] = target: Gal(b1-4)GlcNAc(b1-2)Man(a1-3)Man(b1-4)GlcNAc(b1-4)GlcNAc
Procedure, shortened: as §1

[3] = target: Gal(b1-4)GlcNAc(b1-2)Man(a1-3)[Gal(b1-4)GlcNAc(b1-2)Man(a1-6)]Man(b1-4)GlcNAc(b1-4)GlcNAc
Procedure, shortened: as §1

[4] = target: Gal(b1-4)GlcNAc(b1-2)Man(a1-3)[Gal(b1-4)GlcNAc(b1-2)Man(a1-6)]Man(b1-4)GlcNAc(b1-4)[Fuc(a1-6)]GlcNAc
Procedure, shortened: as §1

[5] = target: Gal(b1-4)GlcNAc(b1-2)Man(a1-3)[Gal(b1-4)GlcNAc(b1-2)Man(a1-6)][Gal(b1-4)GlcNAc(b1-4)]Man(b1-4)GlcNAc(b1-4)[Fuc(a1-6)]GlcNAc
Procedure, shortened: as §1

[6] = target: Gal(b1-4)GlcNAc(b1-2)Man(a1-3)[Gal(b1-4)GlcNAc(b1-2)Man(a1-6)][GlcNAc(b1-4)]Man(b1-4)GlcNAc(b1-4)[Fuc(a1-6)]GlcNAc
Procedure, shortened: as §1

[7] = target: Gal(b1-4)GlcNAc(b1-2)Man(a1-3)[GlcNAc(b1-2)Man(a1-6)]Man(b1-4)GlcNAc(b1-4)GlcNAc
Procedure, shortened: as §1

[8] = target: Gal(b1-4)GlcNAc(b1-2)Man(a1-3)[GlcNAc(b1-4)][Gal(b1-4)GlcNAc(b1-2)Man(a1-6)]Man(b1-4)GlcNAc(b1-4)GlcNAc
Procedure, shortened: as §1

[9] = target: Gal(b1-4)GlcNAc(b1-2)Man(a1-3)[Man(a1-6)]Man(b1-4)GlcNAc(b1-4)GlcNAc
Procedure, shortened: as §1

[10] = target: Gal(b1-4)GlcNAc(b1-2)Man(a1-6)Man(b1-4)GlcNAc(b1-4)GlcNAc
Procedure, shortened: as §1

[11] = target: Gal(b1-4)GlcNAc(b1-2)Man(a1-6)[GlcNAc(b1-2)Man(a1-3)]Man(b1-4)GlcNAc(b1-4)GlcNAc
Procedure, shortened: as §1

[12] = target: Gal(b1-4)GlcNAc(b1-2)Man(a1-6)[Man(a1-3)]Man(b1-4)GlcNAc(b1-4)GlcNAc
Procedure, shortened: as §1

[13] = target: Gal(b1-4)GlcNAc(b1-2)[Gal(b1-4)GlcNAc(b1-4)]Man(a1-3)[Gal(b1-4)GlcNAc(b1-2)Man(a1-6)]Man(b1-4)GlcNAc(b1-4)GlcNAc
Procedure, shortened: as §1

[14] = target: Gal(b1-4)GlcNAc(b1-2)[Gal(b1-4)GlcNAc(b1-4)]Man(a1-3)[Gal(b1-4)GlcNAc(b1-2)[Gal(b1-4)GlcNAc(b1-6)]Man(a1-6)]Man(b1-4)GlcNAc(b1-4)GlcNAc
Procedure, shortened: as §1

[15] = target: Gal(b1-4)GlcNAc(b1-2)[Gal(b1-4)GlcNAc(b1-4)]Man(a1-3)[GlcNAc(b1-4)][Gal(b1-4)GlcNAc(b1-2)Man(a1-6)]Man(b1-4)GlcNAc(b1-4)GlcNAc
Procedure, shortened: as §1

[16] = target: Gal(b1-4)GlcNAc(b1-2)[Gal(b1-4)GlcNAc(b1-4)]Man(a1-3)[GlcNAc(b1-4)][Gal(b1-4)GlcNAc(b1-2)[Gal(b1-4)GlcNAc(b1-6)]Man(a1-6)]Man(b1-4)GlcNAc(b1-4)GlcNAc
Procedure, shortened: as §1

[17] = target: Gal(b1-4)GlcNAc(b1-2)[Gal(b1-4)GlcNAc(b1-6)]Man(a1-6)[Gal(b1-4)GlcNAc(b1-2)Man(a1-3)]Man(b1-4)GlcNAc(b1-4)GlcNAc
Procedure, shortened: as §1

[18] = target: Gal(b1-4)GlcNAc(b1-2)[Gal(b1-4)GlcNAc(b1-6)]Man(a1-6)[Gal(b1-4)GlcNAc(b1-2)Man(a1-3)]Man(b1-4)GlcNAc(b1-4)[Fuc(a1-6)]GlcNAc
Procedure, shortened: as §1

[19] = target: Gal(b1-4)GlcNAc(b1-2)[Gal(b1-4)GlcNAc(b1-6)]Man(a1-6)[GlcNAc(b1-4)][Gal(b1-4)GlcNAc(b1-2)Man(a1-3)]Man(b1-4)GlcNAc(b1-4)GlcNAc
Procedure, shortened: as §1

[20] = target: Gal(b1-4)GlcNAc(b1-2)[Gal(b1-4)GlcNAc(b1-6)]Man(a1-6)[GlcNAc(b1-4)][Gal(b1-4)GlcNAc(b1-2)[Gal(b1-4)GlcNAc(b1-4)]Man(a1-3)]Man(b1-4)GlcNAc(b1-4)[Fuc(a1-6)]GlcNAc
Procedure, shortened: as §1

[21] = target: Gal(b1-4)GlcNAc(b1-3)Gal(b1-3)GalNAc
Procedure, shortened: as §1

[22] = target: Gal(b1-4)GlcNAc(b1-3)Gal(b1-3)GlcNAc
Procedure, shortened: as §1

[23] = target: Gal(b1-4)GlcNAc(b1-3)Gal(b1-4)Glc
Procedure, shortened: as §1

[24] = target: Gal(b1-4)GlcNAc(b1-3)Gal(b1-4)GlcNAc
Procedure, shortened: as §1

[25] = target: Gal(b1-4)GlcNAc(b1-3)Gal(b1-4)GlcNAc(b1-2)Man(a1-3)[Gal(b1-4)GlcNAc(b1-3)Gal(b1-4)GlcNAc(b1-2)Man(a1-6)]Man(b1-4)GlcNAc(b1-4)GlcNAc
Procedure, shortened: as §1

[26] = target: Gal(b1-4)GlcNAc(b1-3)Gal(b1-4)GlcNAc(b1-2)Man(a1-3)[Gal(b1-4)GlcNAc(b1-3)Gal(b1-4)GlcNAc(b1-2)Man(a1-6)]Man(b1-4)GlcNAc(b1-4)[Fuc(a1-6)]GlcNAc
Procedure, shortened: as §1

B1: Awp1 (Candida glabrata) (protein)
chain: MSLITIFAFLIKATLVLSLDILTPTTLTGDQTFNEDVSVVSSLTLNDGSQYLFNNLLQIAPSSASVTANALAAVSVFTFSLPPSSSLSNSGTLIISNSNTGPSTEQHIVITPNVMANTGTITLSLAHTNTDSSSTLIIDPVTFYNTGTINYESIGSETNDPSLTGNILSIGSSGRTLQNLGTINLNAANSYYLLGTITENSGSINVQKGFLYVNALDFIGNTINLSTTTALAFISPVSQVVRVRGVFFGNIIASVGSSGTFSYNTQTGILTVTTNGVYSYDIGCGYNPALMSGQQETLSFQGNPYDTFLVLVNQPIPSDLTCAAVSSSITPSSSVEPSSSVVPSSSVEPSSSVEPSSSVEPSSSVEPSSSVEPSSSVEPSSSVEPSSSVEPSSSVEPSSSVEPSSSVEPSSSVEPSSSVEPSSSVEPSSSVEPSSSVEPSSSVEPSSSVEPSSSVEPSSLIVPSSSVEPSSSVLPSSSVVPSSSVEPSTPPIPSSSVEPSSSVVPSSPAVPSSSVEPSTPPIPSSSVVSASVFDTSSTLPSSPSVPPSSVSPSTISTPSSSAAPSSFCPTCVSSGTPPAPSSSAIVPTSSAGGGNGGDNREPGAAGQPGAAGQPGAAGQPGAAGQPGAAGQPGAAGQPGAAGQPGAAGQPGAAGQPGAAGQPGAGFGVGSEQPTPGAGAGSGSADGNQSGTGSGTGNGQQGSGQAGSGQAGSGQEGSGQAGSGQAGSGQAGSGQAGSGQAGLDNTASGQSEGGQASAMDGDQSGRDGQSNSGSLLQPNAQQGTGSGTGSDIGADQASGESPGQIGDAQPGSGTDQSSGRHSLAAEARTSQSHSLAADARTRSTTRQTSVIAPDTAPGTASGTAPGTAPGTAVVTTFHGCGTVNHKGMINILLALALLVLL
**Q.** B1 was tested. Which “glycan array binding signal (z-score)” value (Gal(b1-4)Glc) did it give?
**A.** Its value is -0.336.

**Q.** And the “glycan array binding signal (z-score)” value (Gal(b1-4)Glc6S)?
**A.** The value was 0.028.

**Q.** And the “glycan array binding signal (z-score)” value (Gal(b1-4)GlcNAc)?
**A.** Its value is 0.304.

**Q.** And the “glycan array binding signal (z-score)” value [1]?
**A.** Its value is 3.

**Q.** And the “glycan array binding signal (z-score)” value (Gal(b1-4)GlcNAc(b1-2)Man)?
**A.** Its value is 0.36.

**Q.** What about the “glycan array binding signal (z-score)” value [2] of the same binder?
**A.** The value was -0.485.

**Q.** And the “glycan array binding signal (z-score)” value [3]?
**A.** The value was 0.579.

**Q.** What about the “glycan array binding signal (z-score)” value [4] of the same binder?
**A.** Its value is -0.196.

**Q.** What about the “glycan array binding signal (z-score)” value [5] of the same binder?
**A.** The value was -0.89.

**Q.** What about the “glycan array binding signal (z-score)” value [6] of the same binder?
**A.** The value was -2.22.

**Q.** What about the “glycan array binding signal (z-score)” value [7] of the same binder?
**A.** The value was 0.253.

**Q.** What about the “glycan array binding signal (z-score)” value [8] of the same binder?
**A.** The value was -1.72.

**Q.** What about the “glycan array binding signal (z-score)” value [9] of the same binder?
**A.** The value was 0.057.

**Q.** And the “glycan array binding signal (z-score)” value [10]?
**A.** The value was 1.33.

**Q.** What about the “glycan array binding signal (z-score)” value [11] of the same binder?
**A.** The value was 0.086.

**Q.** What about the “glycan array binding signal (z-score)” value [12] of the same binder?
**A.** The value was 0.615.

**Q.** And the “glycan array binding signal (z-score)” value [13]?
**A.** The value was -0.236.

**Q.** And the “glycan array binding signal (z-score)” value [14]?
**A.** Its value is 0.167.

**Q.** And the “glycan array binding signal (z-score)” value [15]?
**A.** The value was -0.307.

**Q.** And the “glycan array binding signal (z-score)” value [16]?
**A.** The value was -0.441.

**Q.** What about the “glycan array binding signal (z-score)” value [17] of the same binder?
**A.** Its value is -1.7.

**Q.** What about the “glycan array binding signal (z-score)” value [18] of the same binder?
**A.** The value was 1.55.

**Q.** What about the “glycan array binding signal (z-score)” value [19] of the same binder?
**A.** Its value is 0.129.

**Q.** What about the “glycan array binding signal (z-score)” value [20] of the same binder?
**A.** Its value is -0.675.

**Q.** And the “glycan array binding signal (z-score)” value [21]?
**A.** Its value is -1.28.

**Q.** And the “glycan array binding signal (z-score)” value [22]?
**A.** The value was 0.447.

**Q.** And the “glycan array binding signal (z-score)” value [23]?
**A.** Its value is 1.62.

**Q.** And the “glycan array binding signal (z-score)” value [24]?
**A.** The value was 0.812.

**Q.** And the “glycan array binding signal (z-score)” value [25]?
**A.** The value was -0.117.

**Q.** And the “glycan array binding signal (z-score)” value [26]?
**A.** Its value is 1.43.
